Patent publication US8629318B2, “Transgenic animals for analyzing CYP3A4 cytochrome P450 gene regulation” (University of Sydney, priority 2000, dated 2014)
Entries after “also recorded” stand apart in the source; their conditions may differ.

Test system: −13CYP3A4/lacZ transgene
Test: β-galactosidase activity in total liver lysates, ONPG assay, line 9/4
Format: in vivo, mouse

## C[C@@H]1C[C@H]2[C@@H]3CCC4=CC(=O)C=C[C@]4(C)[C@@]3(F)[C@@H](O)C[C@]2(C)[C@@]1(O)C(=O)COP(=O)(O)O [dexamethasone, dexamethasone phosphate]
Line 9/4, 100 mg/kg i.p. daily for 4 days, FIG. 3A, 100 mg/kg
  relative degree of induction of transgene, β-galactosidase activity in liver lysates: most potent xenobiotic activators; also recorded: most potent inducers
Male mice line 9/4, 1 to 100 mg/kg, FIG. 4A
  dose response of transgene expression, β-galactosidase activity in liver homogenates: increased β-galactosidase activity; also recorded: dose-dependent
